Source: patent US11555035B2, “Heterocyclic compound and harmful arthropod-controlling agent containing same” (SUMITOMO CHEMICAL COMPANY, LIMITED, priority 2017, dated 2023)
Some entries share one result that the patent states for a list of compounds. At least one compound was matched to its structure with a doubt left.

Legend:
[1] = tested on: diamondback moth (Plutella xylostella); assay: Test method 5: sprayed cabbage stem and leaf cut out, diamondback moth 2nd instar larvae; assay type: in vivo; conditions: 500 ppm, spray 20 mL/seedling, after 5 days
[2] = tested on: young mites (Haemaphysalis longicornis); assay: Test Example 10: coated screw tube contact test, young mites; assay type: in vivo; conditions: 1 mg in acetone 0.2 mL coated on screw tube inner wall, after 2 days

| Structure (SMILES) | mortality [1] | mortality [2] |
| --- | --- | --- |
| CCSc1cc(-c2ccc(C#N)cn2)cnc1-c1nc2cc(C(F)(F)F)cnc2n1C [compound 3] | ≥ 80% | ≥ 80% |
| CCSc1cc(-c2ncc(C#N)cn2)cnc1-c1nc2cc(C(F)(F)F)cnc2n1C [compound 6] | ≥ 80% | ≥ 80% |
